Measurements published in patent US20240299356A1, “DEVELOPMENT OF PRMT-TARGETING THERAPY TO ENHANCE EGFR-TARGETING DRUG EFFICACY IN NSCLC” (The Regents of the University of California, priority 2021, published 2024).

Tested on: lung cancer cell lines
Test: Drug tolerance in lung cancer cell models
Assay type: cell-based
Experimental: FIGS. 3A-3D present exemplary data showing that Type I PRMT inhibition enhanced cancer drug efficacy. […] FIGS. 3B-3D present data showing the correlation between endogenous STAT1 expression levels and the efficacy of type I PRMT inhibition. […] Gray dots indicate cell lines that were tested for the efficacies of type I PRMT inhibition (by MS023).
Can type I PRMT inhibition provide a general strategy for reducing drug tolerance and enhance efficacies of SOC drugs? STAT1 signaling can be activated by various sources in tumors, including interferon (IFN)-producing immune cells in the tumor microenvironment, endogenous nucleic acids, and cancer therapeutics (FIG. 2H)^31. […] We also observed efficacy of MS023 with gemcitabine in various pancreatic cancer cell lines (FIG. 6A).

With `CC(C)Oc1ccc(-c2c[nH]cc2CN(C)CCN)cc1` [MS023] the “tolerance-reducing efficacies (AUC) versus MDR1 expression” value (each dot a cancer cell line model (FIG. 11)) was “did not correlate with MDR1 expressions” and the “efficacy (AUC of dose-response) versus endogenous STAT1 expression” value (panel of lung cancer drug tolerance models without added IFNγ (FIGS. 3C, 3D)) was “correlated with endogenous STAT1 expression levels”.
